# Some of these results come from one statement about several compounds together. For at least one compound, name, drawing or mass did not settle the structure.
# Tested on: ERK specific phosphorylation of Rsk-1 and/or Elk-1
# Test: ERK substrate phosphorylation assays (Rsk-1 and/or Elk-1)
# Format: cell-based, human
# Procedure: Prior to harvesting, cells were pre-incubated with the test compounds for 15-20 minutes and then stimulated with EGF or anisomycin to activate the ERK or p38 MAP kinase pathways, respectively. […] The lysates then were diluted with an equal volume of 2X SDS-sample buffer and the proteins were separated on SDS-PAGE for immunoblot analysis. Immunoblot analysis was done as previously described (41-43).
smiles,measurement,value
NC(=N[N+](=O)[O-])N/N=C/c1ccc(-c2cccc([N+](=O)[O-])c2)o1 [Compound 89],activity in ERK substrate phosphorylation assays (in words),active

# Reference: patent US20070066616A1, “Inhibitors for extracellular signal-regulated kinase docking domains and uses therefor” (priority 2005, published 2007)
